Source: PMC3107199
Results are given in words; binding and its absence hold for the method and conditions named. Binding seen in cells or lysates may run through a third protein. Some entries that bind do so weakly or less than the wild type.

Chains of the proteins cited; added tags and fusions are not shown.
UniProt P19109: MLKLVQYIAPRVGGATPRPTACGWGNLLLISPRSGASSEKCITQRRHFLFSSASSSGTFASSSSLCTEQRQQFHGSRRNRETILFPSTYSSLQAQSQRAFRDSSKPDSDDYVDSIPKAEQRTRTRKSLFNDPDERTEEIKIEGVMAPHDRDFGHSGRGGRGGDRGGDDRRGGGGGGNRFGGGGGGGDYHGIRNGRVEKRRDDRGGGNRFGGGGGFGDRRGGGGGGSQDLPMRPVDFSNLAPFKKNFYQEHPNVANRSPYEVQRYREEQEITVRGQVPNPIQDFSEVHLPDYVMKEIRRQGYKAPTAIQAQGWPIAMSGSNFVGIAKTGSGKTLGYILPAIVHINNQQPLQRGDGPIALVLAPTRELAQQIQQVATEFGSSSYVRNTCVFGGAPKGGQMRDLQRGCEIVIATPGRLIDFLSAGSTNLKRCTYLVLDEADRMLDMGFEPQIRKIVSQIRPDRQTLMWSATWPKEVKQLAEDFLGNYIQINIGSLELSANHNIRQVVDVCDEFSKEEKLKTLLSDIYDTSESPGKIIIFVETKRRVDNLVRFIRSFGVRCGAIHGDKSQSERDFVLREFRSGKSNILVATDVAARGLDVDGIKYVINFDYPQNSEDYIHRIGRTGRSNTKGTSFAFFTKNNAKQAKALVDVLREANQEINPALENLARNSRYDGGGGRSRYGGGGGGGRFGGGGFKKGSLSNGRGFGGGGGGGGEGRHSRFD

Biological target: recombinant GST-Rm62 (Drosophila) (UniProt P19109)
Assay: pull-down; recombinant GST-Rm62 or GST incubated overnight with adult fly head lysate; Western blot for Pur α; samples treated or untreated with RNase; only the target purified

B1: endogenous Pur α (protein, UniProt Q95RR6 1-274)
chain: MSDLGSGDDGISGSKYNVANMEGSSSRNDFDSSAKGGSGVEQELATKMLQIQSKRFYLDVKQNRRGRFIKVAEIGADGRRSQIYLALSTAAEFRDHLSSFSDYYASLGPPNTDNLPEDGKLKSEMMIKDYRRYYLDLKENARGRFLRVSQTITRGGPRSQIALPAQGMIEFRDALTDLLEEFGANDGGFKGDLPEERHMKVDNKNFYFDIGQNNRGVYMRISEVKNNFRTSITIPEKCWIRFRDIFNDYCEKMKKSSDSITAEINLPTSSNSLK
With B1 the binding was “binds”.
